Measurements taken from patent publication US20190041402A1 (GOVERNING COUNCIL OF THE UNIVERSITY OF TORONTO, published 2019).

Target: biotinylated αKlotho (aa1-549)
Assay: capture ELISA, IgG coated, biotinylated αKlotho aa1-549

Binder | binding
anti-αKlotho clone 4831 full length IgG (antibody, V domains shown) VH: EVQLVESGGGLVQPGGSLRLSCAASGFNIYSSSIHWVRQAPGKGLEWVASIYPYSGYTYYADSVKGRFTISADTSKNTAYLQMNSLRAEDTAVYYCARYSWGSSFWPGYGFDYWGQGTLVTVSS VL: DIQMTQSPSSLSASVGDRVTITCRASQSVSSAVAWYQQKPGKAPKLLIYSASSLYSGVPSRFSGSRSGTDFTLTISSLQPEDFATYYCQQYSYYYASPITFGQGTKVEIKR | binds
sb106 IgG (antibody, V domains shown, also called sb106 (48) full length IgG) VH: EVQLVESGGGLVQPGGSLRLSCAASGFNISYYSIHWVRQAPGKGLEWVAYISPSYGYTSYADSVKGRFTISADTSKNTAYLQMNSLRAEDTAVYYCARYYVYASHGWAGYGMDYWGQGTLVTVSS VL: DIQMTQSPSSLSASVGDRVTITCRASQSVSSAVAWYQQKPGKAPKLLIYSASSLYSGVPSRFSGSRSGTDFTLTISSLQPEDFATYYCQQAGYSPITFGQGTKVEIKR | no binding (tested: 20 ng)
anti-αKlotho clone 4808 full length IgG (antibody, V domains shown) VH: EVQLVESGGGLVQPGGSLRLSCAASGFNFSSSSIHWVRQAPGKGLEWVASISSSYGYTYYADSVKGRFTISADTSKNTAYLQMNSLRAEDTAVYYCARPYSAYYWAWYGPGGALDYWGQGTLVTVSS VL: DIQMTQSPSSLSASVGDRVTITCRASQSVSSAVAWYQQKPGKAPKLLIYSASSLYSGVPSRFSGSRSGTDFTLTISSLQPEDFATYYCQQSSYSLITFGQGTKVEIKR | no binding (tested: 20 ng)

Results are given in words; binding and its absence hold for the method and conditions named. Binding calls can cover weak binding; strength is not graded here.
